The target of the experiment is Mitogen-activated protein kinase kinase kinase 2 (Homo sapiens) + Dual specificity mitogen-activated protein kinase kinase 5 (Homo sapiens) (UniProt Q9Y2U5+Q13163). Briefly: inhibitors of MEK5 binding to MEKK2, dose response, biochemical, bead multiplex flow cytometry, wildtype (AID 1897). Conditions: MEK5-MEKK2 PB1 binding. (A flow cytometer gives signals particle by particle.)

Sequences of proteins named here, by UniProt entry; tags and fusion partners are left off. A change or cut given only in a name is not applied to a line headed by its entry.
UniProt Q9Y2U5: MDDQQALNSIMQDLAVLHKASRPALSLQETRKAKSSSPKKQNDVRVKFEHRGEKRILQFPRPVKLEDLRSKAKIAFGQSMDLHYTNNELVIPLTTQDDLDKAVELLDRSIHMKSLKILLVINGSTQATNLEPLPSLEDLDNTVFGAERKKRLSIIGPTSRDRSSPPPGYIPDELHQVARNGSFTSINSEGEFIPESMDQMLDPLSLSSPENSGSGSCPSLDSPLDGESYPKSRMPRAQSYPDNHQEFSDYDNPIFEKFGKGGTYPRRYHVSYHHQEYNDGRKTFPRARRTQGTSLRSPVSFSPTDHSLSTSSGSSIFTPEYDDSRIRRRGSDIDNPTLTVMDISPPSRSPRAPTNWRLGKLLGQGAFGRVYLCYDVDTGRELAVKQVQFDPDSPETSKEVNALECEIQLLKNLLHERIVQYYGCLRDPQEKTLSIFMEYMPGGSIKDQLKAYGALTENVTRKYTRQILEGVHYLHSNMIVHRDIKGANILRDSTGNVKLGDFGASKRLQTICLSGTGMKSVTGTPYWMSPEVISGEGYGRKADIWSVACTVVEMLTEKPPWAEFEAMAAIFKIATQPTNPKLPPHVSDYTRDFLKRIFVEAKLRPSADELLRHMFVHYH
UniProt Q13163: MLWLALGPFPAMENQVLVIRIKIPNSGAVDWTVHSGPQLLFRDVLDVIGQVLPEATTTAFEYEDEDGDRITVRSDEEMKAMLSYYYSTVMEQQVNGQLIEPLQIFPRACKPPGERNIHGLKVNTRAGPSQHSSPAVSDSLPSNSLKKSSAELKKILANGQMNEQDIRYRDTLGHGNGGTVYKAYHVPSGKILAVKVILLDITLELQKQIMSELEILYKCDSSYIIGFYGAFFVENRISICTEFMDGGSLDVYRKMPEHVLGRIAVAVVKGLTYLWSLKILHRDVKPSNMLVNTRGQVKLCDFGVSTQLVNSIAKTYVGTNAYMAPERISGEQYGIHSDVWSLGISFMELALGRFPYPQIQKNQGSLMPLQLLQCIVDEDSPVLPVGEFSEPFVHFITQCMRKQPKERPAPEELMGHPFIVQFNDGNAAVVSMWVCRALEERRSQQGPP

Each structure is given as a SMILES string.

`Cc1c2cc(O)c(=O)cc-2oc2cc(O)c(O)cc12`: the EC50 – broadly, the midpoint of the concentration-response curve – is 4.02 µM.

The values above are taken from PubChem BioAssay AID1897 (NMMLSC, 2009).
